# The campaign covered roughly 53,000 sequences. About 3,700 (7%) were called active.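 Rule for the calls: active = gene knockdowns whose robust z-score for IL-1 alpha signal is at least 2 or at most -2, so actives lie on both sides; inactive = the rest.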 Some of the results follow.
# Assay: Components of the Cytosolic LPS Sensing Pathway: Gene Identification via Genome-wide siRNA Screen;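 note: robust z of the log signal after scaling to non-targeting control siRNA wells of the plate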
# Details: RAW264.7 macrophages, IL-1a HTRF, actives lie on both sides, screened at 100 nM (by protocol), cells primed 5 h with Pam3CSK4 first
# Summary of the method: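 RAW264.7; siRNA 100 nM final, RNAiMAX, 48h 37 degrees C; Pam3CSK4 5 h; LipidA + TransIT-TKO 24 h; IL-1a HTRF; CellTiter-Glo viability; robust z vs negative-control median.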
row,Sequence,z-score
1,GGAGAUCGACAAAUGCCUGTT against Gna13,inactive: -1.64
2,GGAAUCAAGGACUUUAGUATT against Slc17a2,inactive: 1.29
3,CCUUCCUACCGGAGAAUGATT against Capn6,inactive: -0.341
4,GCUAACCAACUUAAUUCUATT against Angptl3,inactive: 0.675
5,CCUAACGGUCAGAAGUUGATT against Ccng1,inactive: 0.39
6,CCGUUGUGAACUACAAGCUTT against Ufsp1,inactive: 0.575
7,GCCCAAGGUGAUCAUUAUUTT against Casp1,inactive: -0.15
8,GGUCUUCAGGGAGUUCUUCTT against Dnajb3,inactive: 1.27
9,CCCUGUAUAUAUUUGCUGATT against Clca3a2,active: 2.78
10,GGAAGUAGGAUGAUGUUGGTT against Hmga1,active: -2.08
11,GCCAUCACAAUUCUAAUCCTT against Vmn2r123,inactive: -1.54
12,GGAAAAGGAACUUUAUCUATT against Pds5b,inactive: -0.506
13,GCAAGUAUCCCGAAUUGACTT against Snhg11,inactive: -0.39
14,GGGAUAGAAAUGAUUGAGGTT against Lhx8,inactive: 0.512
15,GCCUAUCAGUAUCAUAGUUTT against Dnajc10,inactive: 0.905
16,GGCCAAGGUACAAUCCACCTT against Ajm1,inactive: 0.481
17,GGGAACAUGUGGAAGUAUGTT against Ndufaf7,inactive: 0.187
18,GCGUGGAGUGGGAUAAAGATT against Cant1,inactive: -1.1
19,CCUAGAGUCUCAGGACUGUTT against Actrt3,inactive: 0.682
20,GGAGGAUAUCACAACAGAATT against Ftsj3,inactive: -0.971
21,GGGAUUUCUAUAACCCGUUTT against Cldn3,inactive: -1.01
22,GGCCAAGAGUGUUUCCAAATT against Samt4,inactive: 1.53

row,Sequence,z-score
1,GGGUCCUAAGACUAUUGAUTT against Eif4g1,inactive: 0.274
2,GGUGUGAUGGAGUUCUUAUTT against Ndufs1,inactive: -0.94
3,CGCUCAUUUAGACAUAGAGTT against Ass1,inactive: 0.686
4,GGUAGAGGUUAAGACGAUCTT against Dock6,inactive: -0.436
5,GGUUUCAAGGAAAGACUAATT against Kcnj2,inactive: -0.846
6,GCGCAGAGUUUGACUAUCCTT against Itgb7,inactive: 0.86
7,GGUCACCCUGUUUAGGCCUTT against Fgd3,inactive: 0.571
8,GGUAACAUUUUUUUCCUGUTT against Pla2g3,inactive: 0.868
9,GGACUUCUACCUGUCCAUATT against Crtap,inactive: 1.24
10,CGUGGCUCACAAUAAAUGCTT against Cfd,inactive: 0.385
11,CCGCUGAAAAUGGAAGUUATT against Mrgprb4,active: -2.21
12,CGAGAUUUCUGAUGAUGAUTT against Osbpl3,inactive: 0.0194
13,GCACCAUAACGUAAGGCAUTT against Ghsr,inactive: -1.13
14,CGAACAGUGCUUCGUAUGUTT against Lims1,inactive: -1.04
15,CCAUUUAAUCCAUAUUUCCTT against Gnao1,active: -2.05
16,CCCUGUCUCCCGCAUAGAATT against Itgb6,inactive: 1.33
17,GGUGAUACUACAUAUCAAGTT against Adamts8,inactive: 0.668
18,GCUACAGGAUUACAUGGUCTT against Ccm2l,inactive: 0.48
19,GGCUUUUGUGGACUUUACATT against Capn12,inactive: 1.42
20,GCAAUAAAAACUACACUAGTT against Agpat3,inactive: -0.432
21,CCAUUACUUCUGUGACCUCTT against Olfr32,inactive: -0.289
22,GGAAAUUCUACAAGGGCAATT against Rpl35,inactive: 1.04

row,Sequence,z-score
1,CCCAGAAGAGACUAUACUGTT against Myl10,inactive: 0.202
2,GGUGUAAGGCUGUUGUAUUTT against Ackr3,inactive: -0.0492
3,GCAUAGCAGAGAUGAUUCUTT against Trip12,active: 2.15
4,GGUGGAGAAACAAAUUAGUTT against Rab9,inactive: 1.47
5,GGGUAAUUCCCAGUGAAGATT against Lpin2,inactive: -0.661
6,CCCGUAAGGUAACAAACCGTT against Polr3k,inactive: -1.14
7,CCUUUAAAAGCGUAGGCAUTT against Esrp1,inactive: -0.695
8,GGGUGUAACAAAAUAAAGUTT against Ptprg,inactive: 0.0684
9,GGUGUAUCGCCUAUACCAGTT against Chmp7,inactive: -0.0399
10,GGGCAUUUUGAGAAUAUGATT against Zfp85os,inactive: -1.31
11,CCUUGAAUAACUGUAUGGUTT against Etfbkmt,inactive: 0.77
12,GGACAUUGGCCAUUUGGUUTT against Fpr1,inactive: -0.21
13,CCUCUACAGGCAAAAUUAGTT against Aurkb,inactive: -1.09
14,CCAGCUUACAUGAAUAGUUTT against Alx1,inactive: -0.205
15,CGAAAACCUUGCCACUGAGTT against Dbndd1,inactive: 0.321
16,GGCUUUCGUUUACAACAAGTT against Naglu,inactive: -0.414
17,GGCAUAUGUUCGUCUUUCATT against Asf1b,inactive: -1.25
18,CGGAUGAAUGGACUUCCAATT against Dcx,inactive: 1.16
19,GCCCGCCUAUUUGAAAGCATT against Zfp740,inactive: 0.839
20,GGCCAUUUCGAACAUGGUATT against Acacb,inactive: 0.158
21,GGAACACUGGGAACGUAUCTT against Ifnk,inactive: 0.00139
22,GCUCAUUUCCAGAAGACACTT against Tas2r102,inactive: -1.04

# Random excerpt: 5 records from the list.
row,Sequence,z-score
19,GCCCGCCUAUUUGAAAGCATT against Zfp740,inactive: 0.839
10,GGGCAUUUUGAGAAUAUGATT against Zfp85os,inactive: -1.31
1,GGGUCCUAAGACUAUUGAUTT against Eif4g1,inactive: 0.274
11,CCUUGAAUAACUGUAUGGUTT against Etfbkmt,inactive: 0.77
9,CCCUGUAUAUAUUUGCUGATT against Clca3a2,active: 2.78

# (list continues)

row,Sequence,z-score
1,GCUUAUCUGUCAGUACCACTT against Cxcr6,inactive: 0.811
2,GGAGGAUUUGCCAAGUAACTT against Zbtb33,inactive: -0.0596
3,GCCAUUGUUACUGACUGCCTT against Plekhg4,inactive: -0.341
4,GCGGAGUGUCAAUAAAAUATT against Atp6v1g2,inactive: -0.494
5,GCUGGAGAAUAAGCUAAUUTT against Kif13a,inactive: 1.96
6,GGAGCUUCGUGGAUAAGAGTT against Padi3,inactive: -1.79
7,GGAAAAGCAGACAUGUGAUTT against Dedd,inactive: -0.875
8,GGAAAUAUUGAUGCUGCUGTT against Ttc39a,inactive: 1.09
9,GGCCUCUUAUGUCAACCUGTT against Rpsa,inactive: -1.57
10,GGGAGAUGUAUGCUUGCUCTT against Evi2a,inactive: 0.934
11,CGUGAUCCCACAGAUGUAGTT against Csrp3,inactive: -0.649
12,GGAGGAGCAAAAGUCAGAATT against Palm,inactive: 0.705
13,CGACUCCAAGGAUUUGACUTT against Anxa10,inactive: -1.23
14,CGUUUGUUACUCUUCAGCUTT against Olfr1461,inactive: -1.07
15,GGCAACGGUACCUUUGUGGTT against Crtac1,inactive: -1.06
16,GGACCAGUACAACUUUAAUTT against Prf1,inactive: -0.314
17,GGCCCUUUGAGUUAGAGAATT against Apln,inactive: -1.7
18,CCAUUCAAACAGCAUUCAUTT against Itpr1,inactive: 1.48
19,GCACUCUGCCUGAAAUACCTT against Nlrp1a,inactive: -0.376
20,GGAACUGCCUUCGACCUGATT against Galm,inactive: -0.795
21,GGAGAGCUUGUUCAAGUGCTT against Zxdc,inactive: -0.86
22,CAUCGUGUGAAACUGGAGATT against Carmil3,inactive: 0.608

# Reformatted: results already given
row | Sequence | z-score
2 | GGAGGAUUUGCCAAGUAACTT against Zbtb33 | inactive: -0.0596
19 | GCACUCUGCCUGAAAUACCTT against Nlrp1a | inactive: -0.376
22 | CAUCGUGUGAAACUGGAGATT against Carmil3 | inactive: 0.608

# Next part:

row,Sequence,z-score
1,CCAUCAGUUUCAUUAUUGGTT against Fpr-rs6,inactive: -0.605
2,CCUUCCAGCUUUAUUAGAGTT against Fzd1,inactive: 0.141
3,GGGCAAAACACUGUCUUUCTT against Tlr5,inactive: 1.87
4,GCCAUACGACUAUAGUAUUTT against Zfp979,inactive: 0.191
5,GGCAACUGCCUUUACCAUATT against Tceanc2,inactive: 1.67
6,CCCAAUCUCCUAAGAUCUGTT against Snca,inactive: 0.784
7,GGGUGUAAAGAAACCUUAATT against Avpr2,inactive: 0.453
8,CCGCUACCAGAUAAACUCGTT against BC053393,inactive: 0.984
9,GGAGAAAUGGAUCACAUUGTT against H2ax,inactive: 1.4
10,GGAGACAGAUGAAUGAACCTT against Tifab,inactive: 0.0548
11,GGCAAUCAGCAUACCAACUTT against Thbs2,inactive: -1.87
12,GGACCUAAUAAAUUAAGCCTT against Pcf11,inactive: 1
13,GGGCUUCAGUAGUCUUCAATT against Sprr2j-ps,inactive: -0.475
14,GCAGAUCAAACAGCACUCGTT against Fhad1,inactive: -0.386
15,GGAAAAAGGAGGGUUUAGCTT against Tm4sf5,inactive: 0.418
16,GGUAUCAGGAUAAUAUAGATT against Slc25a48,inactive: 0.494
17,GCUCAAGACAUACUUUGAATT against Ddx56,inactive: -0.635
18,GGUGGAAUUUUUGAAGUUUTT against Tbl1xr1,inactive: 1.19
19,GGCAGACUCGACAGUUCAATT against Pde6h,inactive: 0.0959

# — PubChem BioAssay AID1508600 (Functional Genomics Laboratory (NCATS/FGL), 2020)
